The list shows a part of the results.
Assays:
Assay in all cases: log2 fold change, soluble protein after heating vs DMSO (PISA); higher = thermal stabilisation; K562 lysate, 10 uM; active = over 0.2 and 3.5 SD of the protein, either way, in both replicates (recomputed)
[1] = compound: Cc1cn(-c2cc(NC(=O)c3ccc(C)c(Nc4nccc(-c5cccnc5)n4)c3)cc(C(F)(F)F)c2)cn1 [nilotinib]
Procedure, shortened: (§1)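 Soluble protein was defined as the supernatant remaining after 21,000xg for 90 min, following pooling of heated aliquots and adjustment to 0.5% NP-40 at 4°C. Before that, crude K562 extract at 1 mg/mL protein in PBS pH 7.4 with 1 mM MgCl2 was treated with 10 μM compound for 30 min and heated for 3 min across 48°C-58°C. Quantification used TMTpro 16plex LC-MS/MS with channel sums equalised, and values are log-two fold changes in thermal stability relative to solvent controls from duplicates.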

Sequences of proteins named here, by UniProt entry; tags and fusion partners are left off. A change or cut given only in a name is not applied to a line headed by its entry.
UniProt Q9H4I3: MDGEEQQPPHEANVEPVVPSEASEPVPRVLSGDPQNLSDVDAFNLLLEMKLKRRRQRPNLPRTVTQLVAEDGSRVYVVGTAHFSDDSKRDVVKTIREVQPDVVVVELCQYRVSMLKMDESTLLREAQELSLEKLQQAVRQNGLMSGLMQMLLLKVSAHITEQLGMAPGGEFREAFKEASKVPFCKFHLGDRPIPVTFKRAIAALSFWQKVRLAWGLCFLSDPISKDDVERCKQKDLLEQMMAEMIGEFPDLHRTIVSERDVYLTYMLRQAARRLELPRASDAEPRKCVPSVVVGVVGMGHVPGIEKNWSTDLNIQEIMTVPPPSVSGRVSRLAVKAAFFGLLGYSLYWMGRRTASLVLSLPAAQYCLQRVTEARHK
UniProt O94886: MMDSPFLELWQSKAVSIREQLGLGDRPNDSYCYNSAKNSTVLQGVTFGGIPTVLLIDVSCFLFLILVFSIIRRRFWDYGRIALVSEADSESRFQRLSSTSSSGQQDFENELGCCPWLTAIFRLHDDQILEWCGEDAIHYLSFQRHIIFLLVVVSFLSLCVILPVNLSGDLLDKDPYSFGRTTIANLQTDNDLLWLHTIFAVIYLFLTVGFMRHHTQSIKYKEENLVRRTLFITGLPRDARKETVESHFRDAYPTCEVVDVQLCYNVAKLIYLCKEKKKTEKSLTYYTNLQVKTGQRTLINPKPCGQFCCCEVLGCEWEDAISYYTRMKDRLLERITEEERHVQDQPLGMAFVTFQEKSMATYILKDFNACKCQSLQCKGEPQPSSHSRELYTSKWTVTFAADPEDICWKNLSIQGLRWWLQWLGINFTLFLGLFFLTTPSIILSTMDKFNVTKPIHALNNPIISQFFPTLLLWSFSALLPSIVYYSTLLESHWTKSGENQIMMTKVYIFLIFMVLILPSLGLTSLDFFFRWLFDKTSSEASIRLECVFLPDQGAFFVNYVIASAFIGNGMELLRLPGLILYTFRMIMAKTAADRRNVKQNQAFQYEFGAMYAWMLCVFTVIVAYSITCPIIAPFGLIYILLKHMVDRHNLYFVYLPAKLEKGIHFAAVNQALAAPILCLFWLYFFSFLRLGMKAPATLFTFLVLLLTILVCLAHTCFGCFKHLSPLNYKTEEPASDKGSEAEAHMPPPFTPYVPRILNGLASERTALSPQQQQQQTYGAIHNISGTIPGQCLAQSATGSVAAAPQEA
UniProt P42166: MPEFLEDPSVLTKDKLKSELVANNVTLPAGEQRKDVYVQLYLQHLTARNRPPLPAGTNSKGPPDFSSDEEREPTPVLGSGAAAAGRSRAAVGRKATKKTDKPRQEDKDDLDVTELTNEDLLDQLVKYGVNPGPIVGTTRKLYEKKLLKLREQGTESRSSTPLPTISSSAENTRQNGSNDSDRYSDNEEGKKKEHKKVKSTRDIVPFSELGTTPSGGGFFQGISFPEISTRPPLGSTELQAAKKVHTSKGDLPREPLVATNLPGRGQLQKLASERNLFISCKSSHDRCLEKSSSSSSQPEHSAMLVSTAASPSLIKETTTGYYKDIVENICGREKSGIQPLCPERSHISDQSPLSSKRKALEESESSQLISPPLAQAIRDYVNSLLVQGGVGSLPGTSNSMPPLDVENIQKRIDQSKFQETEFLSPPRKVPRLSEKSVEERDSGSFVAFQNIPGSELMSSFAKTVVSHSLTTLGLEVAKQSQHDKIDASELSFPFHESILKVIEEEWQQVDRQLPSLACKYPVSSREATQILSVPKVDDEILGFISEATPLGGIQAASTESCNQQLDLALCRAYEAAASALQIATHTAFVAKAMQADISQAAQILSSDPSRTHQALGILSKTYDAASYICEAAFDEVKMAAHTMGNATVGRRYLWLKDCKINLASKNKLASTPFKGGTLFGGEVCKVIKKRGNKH
UniProt P20333, whole entry, looked up: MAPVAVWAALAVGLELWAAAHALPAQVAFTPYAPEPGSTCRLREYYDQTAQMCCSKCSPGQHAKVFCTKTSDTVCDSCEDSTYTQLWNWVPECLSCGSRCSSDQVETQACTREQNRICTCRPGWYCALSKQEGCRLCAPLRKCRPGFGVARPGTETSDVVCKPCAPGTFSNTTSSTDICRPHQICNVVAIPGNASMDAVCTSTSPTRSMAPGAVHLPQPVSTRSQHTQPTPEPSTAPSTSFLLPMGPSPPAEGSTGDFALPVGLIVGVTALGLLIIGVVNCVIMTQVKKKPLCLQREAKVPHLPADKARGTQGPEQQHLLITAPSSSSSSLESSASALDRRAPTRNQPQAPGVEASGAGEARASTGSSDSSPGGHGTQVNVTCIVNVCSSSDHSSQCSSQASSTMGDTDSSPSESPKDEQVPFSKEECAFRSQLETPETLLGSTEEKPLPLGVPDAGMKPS
UniProt Q9HBL0: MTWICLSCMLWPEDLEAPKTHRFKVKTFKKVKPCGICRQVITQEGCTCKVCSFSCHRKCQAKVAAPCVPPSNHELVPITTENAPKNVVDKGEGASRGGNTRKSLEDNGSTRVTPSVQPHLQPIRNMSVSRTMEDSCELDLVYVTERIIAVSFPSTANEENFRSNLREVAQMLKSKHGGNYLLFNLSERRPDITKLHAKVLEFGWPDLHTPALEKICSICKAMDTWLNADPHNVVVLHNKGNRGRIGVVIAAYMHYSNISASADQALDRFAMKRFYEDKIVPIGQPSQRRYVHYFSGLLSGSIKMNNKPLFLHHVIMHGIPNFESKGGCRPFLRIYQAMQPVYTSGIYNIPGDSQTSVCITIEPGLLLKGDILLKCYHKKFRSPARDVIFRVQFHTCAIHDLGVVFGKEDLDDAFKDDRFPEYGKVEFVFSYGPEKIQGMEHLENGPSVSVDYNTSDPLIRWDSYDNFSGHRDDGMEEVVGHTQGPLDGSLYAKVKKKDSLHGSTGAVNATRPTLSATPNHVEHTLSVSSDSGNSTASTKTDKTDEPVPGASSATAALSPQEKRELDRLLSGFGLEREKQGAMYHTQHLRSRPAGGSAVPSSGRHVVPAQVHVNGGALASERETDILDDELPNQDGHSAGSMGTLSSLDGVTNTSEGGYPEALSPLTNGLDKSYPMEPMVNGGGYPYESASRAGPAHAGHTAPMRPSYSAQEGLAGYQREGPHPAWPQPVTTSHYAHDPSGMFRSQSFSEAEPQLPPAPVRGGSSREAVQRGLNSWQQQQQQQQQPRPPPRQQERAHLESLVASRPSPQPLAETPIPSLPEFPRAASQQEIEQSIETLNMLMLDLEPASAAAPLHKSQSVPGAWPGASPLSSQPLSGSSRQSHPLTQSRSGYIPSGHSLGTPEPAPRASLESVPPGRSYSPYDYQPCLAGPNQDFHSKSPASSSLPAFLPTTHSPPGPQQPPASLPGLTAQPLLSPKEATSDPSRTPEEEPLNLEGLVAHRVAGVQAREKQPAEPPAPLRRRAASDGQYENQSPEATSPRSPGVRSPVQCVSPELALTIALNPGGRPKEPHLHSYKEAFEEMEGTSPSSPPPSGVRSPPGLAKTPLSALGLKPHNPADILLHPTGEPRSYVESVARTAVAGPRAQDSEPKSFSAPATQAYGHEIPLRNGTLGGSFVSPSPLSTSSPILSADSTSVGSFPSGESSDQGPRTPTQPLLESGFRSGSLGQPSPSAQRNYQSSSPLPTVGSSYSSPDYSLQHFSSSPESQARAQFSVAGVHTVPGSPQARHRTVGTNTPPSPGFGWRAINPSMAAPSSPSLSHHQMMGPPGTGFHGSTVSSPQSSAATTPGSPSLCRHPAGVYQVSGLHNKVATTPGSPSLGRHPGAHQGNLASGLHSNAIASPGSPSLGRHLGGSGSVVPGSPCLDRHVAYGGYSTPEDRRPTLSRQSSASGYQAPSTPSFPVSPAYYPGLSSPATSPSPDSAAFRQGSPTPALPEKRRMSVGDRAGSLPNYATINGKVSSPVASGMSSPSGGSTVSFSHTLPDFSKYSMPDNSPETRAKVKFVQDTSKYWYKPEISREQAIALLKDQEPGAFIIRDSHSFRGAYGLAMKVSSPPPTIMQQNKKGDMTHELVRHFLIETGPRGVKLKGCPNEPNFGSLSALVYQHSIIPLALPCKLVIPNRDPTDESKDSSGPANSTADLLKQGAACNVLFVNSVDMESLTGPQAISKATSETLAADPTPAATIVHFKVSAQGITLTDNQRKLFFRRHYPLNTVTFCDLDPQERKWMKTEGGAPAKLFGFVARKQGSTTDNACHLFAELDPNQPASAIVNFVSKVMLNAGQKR
UniProt Q4ZIN3: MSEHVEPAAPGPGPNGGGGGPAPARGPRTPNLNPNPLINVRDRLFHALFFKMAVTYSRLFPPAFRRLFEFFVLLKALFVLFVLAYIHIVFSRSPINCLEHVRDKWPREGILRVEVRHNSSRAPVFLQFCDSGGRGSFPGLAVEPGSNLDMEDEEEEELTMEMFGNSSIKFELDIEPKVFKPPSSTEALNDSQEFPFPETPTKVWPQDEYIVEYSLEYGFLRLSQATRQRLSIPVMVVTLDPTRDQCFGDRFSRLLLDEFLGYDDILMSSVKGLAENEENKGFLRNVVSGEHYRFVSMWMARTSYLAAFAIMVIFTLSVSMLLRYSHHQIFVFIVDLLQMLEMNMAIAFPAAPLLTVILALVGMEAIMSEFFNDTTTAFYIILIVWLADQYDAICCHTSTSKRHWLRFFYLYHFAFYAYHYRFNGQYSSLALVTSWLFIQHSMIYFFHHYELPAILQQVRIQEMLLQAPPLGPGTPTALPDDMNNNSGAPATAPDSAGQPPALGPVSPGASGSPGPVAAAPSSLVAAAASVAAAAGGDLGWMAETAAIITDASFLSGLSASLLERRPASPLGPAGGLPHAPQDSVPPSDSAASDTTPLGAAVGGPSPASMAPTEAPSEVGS
UniProt Q9H1E5: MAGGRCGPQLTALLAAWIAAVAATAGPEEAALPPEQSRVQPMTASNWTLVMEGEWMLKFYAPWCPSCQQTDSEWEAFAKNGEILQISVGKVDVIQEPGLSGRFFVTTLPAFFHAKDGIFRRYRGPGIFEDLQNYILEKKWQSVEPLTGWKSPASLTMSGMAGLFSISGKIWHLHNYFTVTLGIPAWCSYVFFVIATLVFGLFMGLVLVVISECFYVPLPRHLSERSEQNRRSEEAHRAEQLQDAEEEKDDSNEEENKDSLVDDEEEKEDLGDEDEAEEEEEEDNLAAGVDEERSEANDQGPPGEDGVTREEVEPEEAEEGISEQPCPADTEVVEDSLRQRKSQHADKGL
UniProt Q9NWD8: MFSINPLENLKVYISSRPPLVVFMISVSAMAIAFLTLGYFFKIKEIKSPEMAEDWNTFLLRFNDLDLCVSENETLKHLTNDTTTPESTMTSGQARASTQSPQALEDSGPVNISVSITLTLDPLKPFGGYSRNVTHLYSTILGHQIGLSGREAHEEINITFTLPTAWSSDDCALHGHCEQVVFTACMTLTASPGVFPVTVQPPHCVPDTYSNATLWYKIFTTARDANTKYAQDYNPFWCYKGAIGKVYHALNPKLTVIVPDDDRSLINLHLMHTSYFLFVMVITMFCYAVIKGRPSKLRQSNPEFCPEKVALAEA
UniProt Q16890: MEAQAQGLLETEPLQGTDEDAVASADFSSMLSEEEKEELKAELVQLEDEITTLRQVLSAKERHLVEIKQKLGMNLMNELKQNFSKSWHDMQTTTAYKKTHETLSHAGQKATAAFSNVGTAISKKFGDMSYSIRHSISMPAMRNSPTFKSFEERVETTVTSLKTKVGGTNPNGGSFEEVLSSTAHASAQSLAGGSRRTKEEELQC
UniProt Q9H3S4: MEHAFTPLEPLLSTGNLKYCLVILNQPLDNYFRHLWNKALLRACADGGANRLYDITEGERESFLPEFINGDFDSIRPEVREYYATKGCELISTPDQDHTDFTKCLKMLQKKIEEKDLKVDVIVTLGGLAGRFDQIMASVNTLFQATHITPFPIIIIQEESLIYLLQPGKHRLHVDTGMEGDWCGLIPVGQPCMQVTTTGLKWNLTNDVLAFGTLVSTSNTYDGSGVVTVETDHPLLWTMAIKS
UniProt Q03169: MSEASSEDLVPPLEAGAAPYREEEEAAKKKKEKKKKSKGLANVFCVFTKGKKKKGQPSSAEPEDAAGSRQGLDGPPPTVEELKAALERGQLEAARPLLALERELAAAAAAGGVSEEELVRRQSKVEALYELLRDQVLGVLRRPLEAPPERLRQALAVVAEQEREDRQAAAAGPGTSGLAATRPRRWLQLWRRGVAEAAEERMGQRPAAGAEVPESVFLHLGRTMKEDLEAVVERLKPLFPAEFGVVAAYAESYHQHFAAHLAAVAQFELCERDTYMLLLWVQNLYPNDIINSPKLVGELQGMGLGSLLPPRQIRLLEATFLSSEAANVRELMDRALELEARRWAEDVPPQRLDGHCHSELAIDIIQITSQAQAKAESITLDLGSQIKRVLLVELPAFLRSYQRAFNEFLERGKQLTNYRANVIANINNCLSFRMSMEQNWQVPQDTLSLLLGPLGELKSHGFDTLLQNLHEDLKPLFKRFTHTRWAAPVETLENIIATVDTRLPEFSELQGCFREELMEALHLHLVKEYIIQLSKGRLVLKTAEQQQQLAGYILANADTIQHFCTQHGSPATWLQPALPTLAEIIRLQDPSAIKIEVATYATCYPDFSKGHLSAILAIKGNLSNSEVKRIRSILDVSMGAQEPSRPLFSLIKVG

[2] = compound: Cc1nc(Nc2n[nH]c3c2CN(C(=O)N[C@H](CN(C)C)c2ccccc2)C3(C)C)c2sccc2n1
Procedure, shortened: as §1

[3] = compound: Cc1nc(Nc2ncc(C(=O)Nc3c(C)cccc3Cl)s2)cc(N2CCN(CCO)CC2)n1 [dasatinib]
Procedure, shortened: as §1

[4] = compound: Cc1ncc(-c2ccnc(Nc3ccc(S(C)(=O)=O)cc3)n2)n1C(C)C
Procedure, shortened: as §1

[5] = compound: Cn1cc(-c2ccc3c(c2)CCN3C(=O)Cc2cccc(C(F)(F)F)c2)c2c(N)ncnc21
Procedure, shortened: as §1

[6] = compound: Cn1cc(CNCC2CCN(c3ncc(C(=O)NO)cn3)CC2)c2ccccc21 [quisinostat]
Procedure, shortened: as §1

[7] = compound: Cn1cncc1[C@@](N)(c1ccc(Cl)cc1)c1ccc2c(c1)c(-c1cccc(Cl)c1)cc(=O)n2C [tipifarnib]
Procedure, shortened: as §1

[8] = compound: NC(=O)Nc1cc(-c2cccc(F)c2)sc1C(=O)N[C@H]1CCCNC1
Procedure, shortened: as §1

[9] = compound: NC(=O)c1cnc(N[C@@H]2CCCC[C@@H]2N)nc1Nc1cccc(-n2nccn2)c1
Procedure, shortened: as §1

[10] = compound: NC1(c2ccc(-c3nc4ccn5c(=O)[nH]nc5c4cc3-c3ccccc3)cc2)CCC1
Procedure, shortened: as §1

Measured: log2 fold change

TRABD (UniProt Q9H4I3)
inactive: [1] 0.058 | [2] -0.017 | [3] 0.072 | [4] -0.026 | [5] -0.013 | [6] 0.006 | [7] -0.003 | [8] -0.038 | [9] 0 | [10] -0.015

TMEM9 (UniProt Q9P0T7)
inactive: [1] 0.058 | [2] 0.03 | [3] 0.034 | [4] 0.026 | [5] 0.025 | [6] 0.049 | [7] -0.046 | [8] -0.013 | [9] -0.024 | [10] -0.032

TOR1A (UniProt O14656)
inactive: [1] 0.034 | [2] -0.055 | [3] 0.017 | [4] -0.03 | [5] -0.01 | [6] 0.006 | [7] -0.026 | [8] 0.009 | [9] -0.007 | [10] 0.003

TOR2A (UniProt Q5JU69)
inactive: [1] 0.125 | [2] -0.025 | [3] -0.056 | [4] 0.135 | [5] 0.013 | [6] 0.051 | [7] -0.049 | [8] -0.013 | [9] 0.057 | [10] 0.002

TMEM63A (UniProt O94886)
inactive: [1] 0.092 | [2] 0.023 | [3] 0.008 | [4] -0.027 | [5] 0.048 | [6] 0.078 | [7] -0.106 | [8] 0 | [9] 0.044 | [10] 0.006

TPM1 (UniProt H7BYY1)
inactive: [1] 0.014 | [2] -0.111 | [3] -0.023 | [4] 0.028 | [5] 0.02 | [6] 0.101 | [7] 0.059 | [8] -0.017 | [9] 0.013 | [10] 0.033

TOMM40 (UniProt O96008)
inactive: [1] 0.011 | [2] -0.01 | [3] 0.003 | [4] 0.024 | [5] -0.029 | [6] -0.025 | [7] 0.031 | [8] -0.015 | [9] -0.019 | [10] -0.01

TMPO (UniProt P42166)
inactive: [1] 0.05 | [2] -0.178 | [3] -0.069 | [4] -0.036 | [5] 0.029 | [6] -0.041 | [7] -0.018 | [8] 0.035 | [9] 0.031 | [10] -0.006

TP53RK (UniProt Q96S44)
inactive: [1] 0.011 | [2] 0 | [3] 0.052 | [4] 0.047 | [5] 0.057 | [6] 0.002 | [7] 0.048 | [8] 0.021 | [9] 0.041 | [10] -0.013

TNFRSF1B (UniProt P20333)
inactive: [1] 0.009 | [2] 0.036 | [3] -0.178 | [4] -0.064 | [5] -0.093 | [6] -0.055 | [7] -0.178 | [8] -0.012 | [9] 0.003 | [10] 0

TOR1B (UniProt O14657)
inactive: [1] 0.045 | [2] -0.01 | [3] -0.018 | [4] 0 | [5] 0.034 | [6] -0.073 | [7] -0.059 | [8] 0.008 | [9] 0.003 | [10] -0.023

TOMM70 (UniProt O94826)
inactive: [1] -0.042 | [2] -0.042 | [3] -0.018 | [4] -0.031 | [5] -0.003 | [6] 0.017 | [7] -0.043 | [8] -0.012 | [9] 0.058 | [10] 0.061

TNIP2 (UniProt Q8NFZ5)
inactive: [1] 0.083 | [2] -0.031 | [4] 0.07 | [6] -0.274 | [7] 0.212 | [8] 0.25 | [9] 0.104 | [10] 0.01

TNS1 (UniProt Q9HBL0)
inactive: [1] 0.015 | [2] -0.007 | [4] -0.021 | [6] -0.112 | [7] 0.027 | [8] 0.043

TMEM259 (UniProt Q4ZIN3)
inactive: [1] 0.108 | [2] 0.015 | [3] -0.027 | [4] -0.056 | [5] -0.157 | [6] -0.097 | [7] -0.081 | [8] 0.052 | [9] 0.049 | [10] 0.018

TMEM205 (UniProt Q6UW68)
inactive: [1] -0.058 | [2] 0.079 | [3] 0.019 | [4] 0.062 | [5] -0.034 | [6] -0.097 | [7] 0.166 | [8] -0.072 | [9] -0.053 | [10] -0.023

TMX4 (UniProt Q9H1E5)
inactive: [1] -0.187 | [2] -0.2 | [3] -0.004 | [4] -0.092 | [5] 0.077 | [6] 0.044 | [7] 0.088 | [8] -0.072 | [10] 0.024

TMEM70 (UniProt Q9BUB7)
inactive: [1] -0.05 | [2] -0.046 | [3] -0.065 | [4] 0.023 | [5] -0.003 | [6] -0.206 | [7] -0.007 | [8] 0.02 | [9] 0.009 | [10] -0.001

TMEM248 (UniProt Q9NWD8)
inactive: [1] 0.107 | [2] -0.052 | [3] -0.053 | [4] 0.059 | [5] 0.048 | [6] 0.096 | [7] 0.007 | [8] -0.045 | [10] 0.096

TPD52L1 (UniProt Q16890)
inactive: [1] 0.037 | [2] -0.031 | [3] 0.032 | [4] -0.019 | [5] -0.012 | [6] 0.097 | [7] 0.013 | [8] -0.038 | [9] -0.1 | [10] 0.057

TMSB4X (UniProt P62328)
inactive: [1] -0.105 | [2] -0.107 | [4] 0.115 | [6] -0.024 | [7] -0.071 | [8] 0.263 | [9] -0.027 | [10] 0

TMEM68 (UniProt Q96MH6)
inactive: [1] 0.039 | [2] -0.117 | [3] -0.03 | [4] -0.022 | [5] -0.037 | [6] -0.033 | [7] -0.008 | [8] 0.04 | [9] -0.043 | [10] -0.073

TPM1 isoform 4 (UniProt P09493)
inactive: [1] 0.02 | [2] 0 | [3] 0.004 | [4] -0.031 | [5] 0.004 | [6] 0.023 | [7] -0.008 | [8] -0.016 | [9] -0.018 | [10] -0.019

TONSL (UniProt Q96HA7)
inactive: [1] -0.011 | [2] 0.008 | [3] 0.019 | [4] -0.018 | [5] -0.036 | [6] -0.083 | [7] -0.059 | [8] 0.065 | [9] 0.047 | [10] -0.007

TNFAIP3 (UniProt P21580)
inactive: [1] 0.038 | [2] -0.01 | [3] -0.002 | [4] -0.04 | [5] 0.033 | [6] 0.008 | [7] -0.068 | [8] 0.025 | [9] 0.01 | [10] 0.003

TPK1 (UniProt Q9H3S4)
inactive: [1] 0.068 | [2] -0.052 | [3] 0.049 | [4] 0.018 | [5] 0.009 | [7] -0.172 | [9] 0.002 | [10] -0.081

TMPPE (UniProt Q6ZT21)
inactive: [1] 0.031 | [2] 0.035 | [4] -0.108 | [6] 0.026 | [7] -0.05 | [8] -0.024 | [9] 0.007 | [10] 0.043

TMEM69 (UniProt Q5SWH9)
inactive: [1] -0.011 | [2] 0.043 | [3] 0.008 | [4] 0.017 | [5] -0.126 | [6] -0.125 | [7] -0.103 | [8] 0.103 | [9] -0.096 | [10] -0.025

TOP2B isoform 2 (UniProt Q02880)
inactive: [1] 0.015 | [2] -0.016 | [3] 0.044 | [4] 0.016 | [5] 0 | [6] -0.024 | [7] 0.018 | [8] 0.044 | [9] -0.007 | [10] -0.013

TOR1AIP1 (UniProt Q5JTV8)
inactive: [1] 0.068 | [2] -0.136 | [3] 0.123 | [4] 0.224 | [5] -0.057 | [7] 0.137 | [9] 0.079 | [10] 0.115

2 consecutive records from above:
TPK1 (UniProt Q9H3S4)
inactive: [1] 0.068 | [2] -0.052 | [3] 0.049 | [4] 0.018 | [5] 0.009 | [7] -0.172 | [9] 0.002 | [10] -0.081

TMPPE (UniProt Q6ZT21)
inactive: [1] 0.031 | [2] 0.035 | [4] -0.108 | [6] 0.026 | [7] -0.05 | [8] -0.024 | [9] 0.007 | [10] 0.043

Carrying on:

TNFAIP2 (UniProt Q03169)
inactive: [1] 0.034 | [2] -0.161 | [3] -0.011 | [4] 0.05 | [5] -0.007 | [6] -0.176 | [7] 0.057 | [8] 0.003 | [9] 0.092 | [10] -0.026
